Measured values reported in the supplement of paper PMC10849652.
The list shows a part of the results.

Protein sequences, listed by entry. Tags and fused reporters are not part of them. Lines headed by an entry give the natural chain unless they say otherwise; changes in a name come on top.
UniProt Q9Y6P5: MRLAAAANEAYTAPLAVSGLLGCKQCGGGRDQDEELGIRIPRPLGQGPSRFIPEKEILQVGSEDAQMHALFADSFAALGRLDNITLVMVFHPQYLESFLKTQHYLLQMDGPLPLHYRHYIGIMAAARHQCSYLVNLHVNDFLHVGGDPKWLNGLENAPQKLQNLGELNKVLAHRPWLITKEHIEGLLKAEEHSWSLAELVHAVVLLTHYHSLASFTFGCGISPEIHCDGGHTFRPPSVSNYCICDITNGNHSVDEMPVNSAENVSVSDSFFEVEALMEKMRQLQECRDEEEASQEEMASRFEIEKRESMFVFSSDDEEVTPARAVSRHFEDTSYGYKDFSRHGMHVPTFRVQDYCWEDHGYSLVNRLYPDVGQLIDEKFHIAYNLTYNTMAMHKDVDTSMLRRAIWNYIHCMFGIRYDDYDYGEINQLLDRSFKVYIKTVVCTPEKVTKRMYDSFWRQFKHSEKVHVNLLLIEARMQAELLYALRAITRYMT
UniProt Q6IA17: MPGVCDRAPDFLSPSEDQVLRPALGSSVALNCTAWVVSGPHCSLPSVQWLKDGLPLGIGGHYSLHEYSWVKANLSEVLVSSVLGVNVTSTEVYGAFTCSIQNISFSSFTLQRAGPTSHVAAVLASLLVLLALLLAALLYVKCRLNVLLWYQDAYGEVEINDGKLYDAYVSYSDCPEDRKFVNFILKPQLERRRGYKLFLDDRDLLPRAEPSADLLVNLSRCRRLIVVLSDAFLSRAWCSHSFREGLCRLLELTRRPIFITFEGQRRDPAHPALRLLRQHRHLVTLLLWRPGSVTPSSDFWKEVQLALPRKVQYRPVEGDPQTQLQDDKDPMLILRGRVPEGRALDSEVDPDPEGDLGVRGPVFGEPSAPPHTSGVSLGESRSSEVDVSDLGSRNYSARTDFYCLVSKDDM
UniProt Q8IYI0: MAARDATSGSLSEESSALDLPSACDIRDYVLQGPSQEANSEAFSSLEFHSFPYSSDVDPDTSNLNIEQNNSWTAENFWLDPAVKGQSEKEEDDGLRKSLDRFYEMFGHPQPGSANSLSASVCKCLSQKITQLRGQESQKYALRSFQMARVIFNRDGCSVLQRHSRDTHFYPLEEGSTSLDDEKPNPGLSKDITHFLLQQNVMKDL
UniProt Q8WV19: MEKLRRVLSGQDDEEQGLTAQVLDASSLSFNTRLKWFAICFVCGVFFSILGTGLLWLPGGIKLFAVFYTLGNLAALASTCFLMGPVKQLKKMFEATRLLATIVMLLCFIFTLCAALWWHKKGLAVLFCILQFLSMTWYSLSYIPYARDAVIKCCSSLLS
UniProt Q562F6: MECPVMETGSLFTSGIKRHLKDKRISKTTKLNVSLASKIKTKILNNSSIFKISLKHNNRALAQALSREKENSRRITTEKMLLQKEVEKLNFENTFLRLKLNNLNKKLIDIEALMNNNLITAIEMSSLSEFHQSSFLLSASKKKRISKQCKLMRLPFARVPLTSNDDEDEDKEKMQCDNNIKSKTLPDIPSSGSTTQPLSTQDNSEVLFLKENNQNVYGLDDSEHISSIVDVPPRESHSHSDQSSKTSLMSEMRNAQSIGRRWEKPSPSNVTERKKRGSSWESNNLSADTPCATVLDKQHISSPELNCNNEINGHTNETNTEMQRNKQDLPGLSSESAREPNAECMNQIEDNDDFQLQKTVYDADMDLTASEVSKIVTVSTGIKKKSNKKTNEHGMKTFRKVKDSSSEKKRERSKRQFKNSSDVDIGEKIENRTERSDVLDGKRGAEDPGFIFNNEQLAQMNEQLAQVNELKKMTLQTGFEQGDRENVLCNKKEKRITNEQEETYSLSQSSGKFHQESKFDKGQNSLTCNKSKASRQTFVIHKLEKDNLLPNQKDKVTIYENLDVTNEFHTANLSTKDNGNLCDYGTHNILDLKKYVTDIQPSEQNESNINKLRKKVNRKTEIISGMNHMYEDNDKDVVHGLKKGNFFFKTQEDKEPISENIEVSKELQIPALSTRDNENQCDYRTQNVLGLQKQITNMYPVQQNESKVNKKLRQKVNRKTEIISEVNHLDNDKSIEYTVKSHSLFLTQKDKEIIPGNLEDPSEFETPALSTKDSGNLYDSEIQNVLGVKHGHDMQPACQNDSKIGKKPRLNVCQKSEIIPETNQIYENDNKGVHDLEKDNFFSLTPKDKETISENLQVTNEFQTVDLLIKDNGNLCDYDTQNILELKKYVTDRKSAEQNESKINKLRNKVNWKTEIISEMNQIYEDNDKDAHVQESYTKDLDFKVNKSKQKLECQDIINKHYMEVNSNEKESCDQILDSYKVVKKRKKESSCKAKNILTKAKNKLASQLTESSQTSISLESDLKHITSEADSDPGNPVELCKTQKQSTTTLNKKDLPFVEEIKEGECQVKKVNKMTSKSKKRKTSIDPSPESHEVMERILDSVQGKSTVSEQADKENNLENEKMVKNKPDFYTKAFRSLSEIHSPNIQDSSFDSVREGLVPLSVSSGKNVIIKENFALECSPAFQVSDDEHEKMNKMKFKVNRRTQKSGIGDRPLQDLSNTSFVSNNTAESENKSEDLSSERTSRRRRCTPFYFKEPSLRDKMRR
UniProt O14796: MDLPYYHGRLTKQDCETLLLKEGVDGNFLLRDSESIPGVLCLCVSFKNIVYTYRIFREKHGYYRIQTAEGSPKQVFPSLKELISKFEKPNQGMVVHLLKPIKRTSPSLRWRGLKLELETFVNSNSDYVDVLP
UniProt P08697: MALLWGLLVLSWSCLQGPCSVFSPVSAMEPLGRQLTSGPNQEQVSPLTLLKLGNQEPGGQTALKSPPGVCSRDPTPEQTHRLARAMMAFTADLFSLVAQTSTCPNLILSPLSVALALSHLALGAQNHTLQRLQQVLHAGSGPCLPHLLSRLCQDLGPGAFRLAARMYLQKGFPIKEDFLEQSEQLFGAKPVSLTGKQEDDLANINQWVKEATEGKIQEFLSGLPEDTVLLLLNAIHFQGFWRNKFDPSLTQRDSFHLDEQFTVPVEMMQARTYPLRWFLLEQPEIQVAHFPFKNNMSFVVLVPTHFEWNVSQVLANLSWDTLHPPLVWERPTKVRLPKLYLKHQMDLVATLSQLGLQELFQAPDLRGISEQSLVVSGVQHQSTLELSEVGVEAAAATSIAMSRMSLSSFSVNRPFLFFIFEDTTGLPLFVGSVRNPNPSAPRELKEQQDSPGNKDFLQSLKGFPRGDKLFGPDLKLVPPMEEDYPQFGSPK
UniProt P12757: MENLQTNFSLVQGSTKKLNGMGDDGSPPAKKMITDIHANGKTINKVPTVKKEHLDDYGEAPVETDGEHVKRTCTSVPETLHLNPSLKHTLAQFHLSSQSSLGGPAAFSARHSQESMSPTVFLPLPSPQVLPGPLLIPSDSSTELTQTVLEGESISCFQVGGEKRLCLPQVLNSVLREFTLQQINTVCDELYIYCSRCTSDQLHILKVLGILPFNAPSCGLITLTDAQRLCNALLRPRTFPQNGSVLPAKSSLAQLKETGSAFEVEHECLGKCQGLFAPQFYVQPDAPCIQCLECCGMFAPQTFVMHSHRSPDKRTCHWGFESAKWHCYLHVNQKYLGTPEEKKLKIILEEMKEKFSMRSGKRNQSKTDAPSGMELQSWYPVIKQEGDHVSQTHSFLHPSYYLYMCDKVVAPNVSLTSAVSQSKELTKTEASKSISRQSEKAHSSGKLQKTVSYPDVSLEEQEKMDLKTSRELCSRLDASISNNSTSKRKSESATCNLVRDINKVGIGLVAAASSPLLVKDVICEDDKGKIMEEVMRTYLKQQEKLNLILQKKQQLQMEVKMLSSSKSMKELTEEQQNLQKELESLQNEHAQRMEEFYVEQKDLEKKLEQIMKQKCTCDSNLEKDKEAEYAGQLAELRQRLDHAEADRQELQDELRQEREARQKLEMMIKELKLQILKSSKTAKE
UniProt P78314: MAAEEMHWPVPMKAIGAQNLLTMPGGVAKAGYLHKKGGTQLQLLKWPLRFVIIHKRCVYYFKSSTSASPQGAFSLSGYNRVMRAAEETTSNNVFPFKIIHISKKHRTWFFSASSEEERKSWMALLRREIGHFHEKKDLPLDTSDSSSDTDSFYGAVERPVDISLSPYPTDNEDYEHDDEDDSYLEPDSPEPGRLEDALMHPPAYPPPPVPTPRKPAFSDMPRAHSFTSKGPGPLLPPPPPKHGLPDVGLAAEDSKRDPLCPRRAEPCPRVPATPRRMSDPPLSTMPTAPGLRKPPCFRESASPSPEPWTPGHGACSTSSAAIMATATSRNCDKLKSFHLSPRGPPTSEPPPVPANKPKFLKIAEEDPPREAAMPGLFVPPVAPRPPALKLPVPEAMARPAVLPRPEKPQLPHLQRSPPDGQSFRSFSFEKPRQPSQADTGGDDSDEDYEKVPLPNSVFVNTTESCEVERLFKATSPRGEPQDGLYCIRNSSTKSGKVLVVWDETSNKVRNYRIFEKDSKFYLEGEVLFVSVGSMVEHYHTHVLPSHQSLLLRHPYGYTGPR
UniProt Q96BI1: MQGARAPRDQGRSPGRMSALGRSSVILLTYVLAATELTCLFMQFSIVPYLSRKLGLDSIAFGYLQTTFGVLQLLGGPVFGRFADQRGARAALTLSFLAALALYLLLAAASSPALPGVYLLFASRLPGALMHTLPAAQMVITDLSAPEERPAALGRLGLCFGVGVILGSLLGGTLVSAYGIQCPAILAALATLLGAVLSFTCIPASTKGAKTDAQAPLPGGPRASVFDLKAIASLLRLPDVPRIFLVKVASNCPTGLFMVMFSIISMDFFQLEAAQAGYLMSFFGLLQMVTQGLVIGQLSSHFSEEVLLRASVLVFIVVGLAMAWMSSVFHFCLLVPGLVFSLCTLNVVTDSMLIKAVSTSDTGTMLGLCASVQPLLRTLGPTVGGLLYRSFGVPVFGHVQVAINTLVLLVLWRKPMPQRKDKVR
UniProt Q9UIU6: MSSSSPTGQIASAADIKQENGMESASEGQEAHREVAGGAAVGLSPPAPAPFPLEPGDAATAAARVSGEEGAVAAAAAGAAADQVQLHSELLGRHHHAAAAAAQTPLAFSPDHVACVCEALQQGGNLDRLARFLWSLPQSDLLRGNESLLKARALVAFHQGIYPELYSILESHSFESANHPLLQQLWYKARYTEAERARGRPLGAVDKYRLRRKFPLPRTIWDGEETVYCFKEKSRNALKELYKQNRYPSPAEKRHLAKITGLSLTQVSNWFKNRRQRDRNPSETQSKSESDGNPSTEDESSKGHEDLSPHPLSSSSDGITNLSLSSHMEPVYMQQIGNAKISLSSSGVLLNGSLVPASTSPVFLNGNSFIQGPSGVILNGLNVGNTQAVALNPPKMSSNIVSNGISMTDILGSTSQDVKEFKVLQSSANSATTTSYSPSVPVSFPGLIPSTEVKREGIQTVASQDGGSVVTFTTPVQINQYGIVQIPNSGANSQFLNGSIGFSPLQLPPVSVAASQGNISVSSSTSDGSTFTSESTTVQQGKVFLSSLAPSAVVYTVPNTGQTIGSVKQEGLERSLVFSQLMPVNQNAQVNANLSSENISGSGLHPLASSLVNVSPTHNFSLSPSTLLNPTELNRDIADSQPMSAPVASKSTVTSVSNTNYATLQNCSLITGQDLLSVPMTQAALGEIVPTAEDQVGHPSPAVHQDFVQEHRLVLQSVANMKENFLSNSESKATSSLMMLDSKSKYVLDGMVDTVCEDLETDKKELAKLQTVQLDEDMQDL
UniProt Q9H0K1: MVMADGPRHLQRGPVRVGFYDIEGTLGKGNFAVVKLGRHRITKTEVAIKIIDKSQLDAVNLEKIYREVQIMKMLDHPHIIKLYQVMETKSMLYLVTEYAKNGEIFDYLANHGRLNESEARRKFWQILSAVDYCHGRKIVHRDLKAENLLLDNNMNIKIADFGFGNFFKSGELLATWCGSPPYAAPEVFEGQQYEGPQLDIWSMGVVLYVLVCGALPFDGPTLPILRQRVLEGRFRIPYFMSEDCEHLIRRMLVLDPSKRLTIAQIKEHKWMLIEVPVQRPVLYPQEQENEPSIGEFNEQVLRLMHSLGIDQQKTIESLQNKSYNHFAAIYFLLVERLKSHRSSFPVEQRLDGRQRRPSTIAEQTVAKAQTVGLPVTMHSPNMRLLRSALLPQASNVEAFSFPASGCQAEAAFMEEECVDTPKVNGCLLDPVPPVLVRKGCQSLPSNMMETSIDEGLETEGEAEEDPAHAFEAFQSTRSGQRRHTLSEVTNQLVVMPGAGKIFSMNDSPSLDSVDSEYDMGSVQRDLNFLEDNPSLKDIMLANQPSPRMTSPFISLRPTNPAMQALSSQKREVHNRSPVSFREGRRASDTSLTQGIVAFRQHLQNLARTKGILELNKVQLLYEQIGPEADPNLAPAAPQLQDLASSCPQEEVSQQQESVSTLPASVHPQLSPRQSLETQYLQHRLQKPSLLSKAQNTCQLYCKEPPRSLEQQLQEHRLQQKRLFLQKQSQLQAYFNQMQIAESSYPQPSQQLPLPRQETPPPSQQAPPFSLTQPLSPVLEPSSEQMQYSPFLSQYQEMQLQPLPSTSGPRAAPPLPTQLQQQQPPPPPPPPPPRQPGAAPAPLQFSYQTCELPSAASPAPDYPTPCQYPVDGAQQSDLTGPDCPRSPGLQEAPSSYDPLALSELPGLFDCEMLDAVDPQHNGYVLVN

What was measured:
Assay in all cases: log2 fold change, soluble protein after heating vs DMSO (PISA); higher = thermal stabilisation; K562 lysate, 10 uM; active = over 0.2 and 3.5 SD of the protein, either way, in both replicates (recomputed)
nilotinib = compound: Cc1cn(-c2cc(NC(=O)c3ccc(C)c(Nc4nccc(-c5cccnc5)n4)c3)cc(C(F)(F)F)c2)cn1 [nilotinib]
How it was run: (§1)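 Thermal stability, expressed as log-two fold change relative to solvent controls, is given from duplicates. Crude K562 extract in PBS pH 7.4 with 1 mM MgCl2, at 1 mg/mL protein, was treated with 10 μM compound for 30 min and heated in aliquots for 3 min across 48°C-58°C. After pooling, adjustment to 0.5% NP-40 at 4°C and centrifugation at 21,000xg for 90 min, supernatant protein was measured by TMTpro 16plex LC-MS/MS with channel sums equalised.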

[1] = compound: Cc1nc(Nc2n[nH]c3c2CN(C(=O)N[C@H](CN(C)C)c2ccccc2)C3(C)C)c2sccc2n1
How it was run: as §1

[2] = compound: Cc1ncc(-c2ccnc(Nc3ccc(S(C)(=O)=O)cc3)n2)n1C(C)C
How it was run: as §1

quisinostat = compound: Cn1cc(CNCC2CCN(c3ncc(C(=O)NO)cn3)CC2)c2ccccc21 [quisinostat]
How it was run: as §1

tipifarnib = compound: Cn1cncc1[C@@](N)(c1ccc(Cl)cc1)c1ccc2c(c1)c(-c1cccc(Cl)c1)cc(=O)n2C [tipifarnib]
How it was run: as §1

[3] = compound: NC(=O)Nc1cc(-c2cccc(F)c2)sc1C(=O)N[C@H]1CCCNC1
How it was run: as §1

[4] = compound: NC1(c2ccc(-c3nc4ccn5c(=O)[nH]nc5c4cc3-c3ccccc3)cc2)CCC1
How it was run: as §1

[5] = compound: NC(=O)c1cnc(N[C@@H]2CCCC[C@@H]2N)nc1Nc1cccc(-n2nccn2)c1
How it was run: as §1

dasatinib = compound: Cc1nc(Nc2ncc(C(=O)Nc3c(C)cccc3Cl)s2)cc(N2CCN(CCO)CC2)n1 [dasatinib]
How it was run: as §1

[6] = compound: Cn1cc(-c2ccc3c(c2)CCN3C(=O)Cc2cccc(C(F)(F)F)c2)c2c(N)ncnc21
How it was run: as §1

Measured: log2 fold change

SFXN4 isoform 3 (UniProt Q6P4A7)
inactive: nilotinib -0.228 | [1] 0.005 | [2] -0.091 | quisinostat -0.219 | tipifarnib 0.036 | [3] 0.102 | [4] 0.009

SIAE (UniProt Q9HAT2)
inactive: quisinostat 0.039 | [3] -0.008

SERPINH1 (UniProt E9PK86)
inactive: nilotinib -0.277 | [1] -0.003 | [2] 0.119 | tipifarnib 0.057

SESN1 isoform 2 (UniProt Q9Y6P5)
inactive: quisinostat -0.18 | [3] 0.042 | [5] -0.047 | [4] -0.102

SIAH2 (UniProt O43255)
inactive: nilotinib 0.02 | [1] 0.052 | [2] -0.053 | tipifarnib 0.03 | [5] -0.202 | [4] -0.028

SETD1B (UniProt Q9UPS6)
inactive: dasatinib -0.101 | [6] 0.166 | quisinostat 0.018 | [3] -0.057

SIGIRR (UniProt Q6IA17)
inactive: [5] 0.311

SHLD1 (UniProt Q8IYI0)
inactive: dasatinib -0.24 | [6] -0.001

SFT2D1 (UniProt Q8WV19)
inactive: dasatinib 0.054 | [6] 0.31 | quisinostat 0.03 | [3] 0.153

SGO2 (UniProt Q562F6)
inactive: quisinostat -0.063 | [3] 0.02

SERPINA1 (UniProt P01009)
inactive: dasatinib 0.107 | [6] 0.136

SERPINB7 (UniProt O75635)
inactive: quisinostat -0.505 | [3] 0.249

SH2D1B (UniProt O14796)
inactive: dasatinib 0.066 | [6] -0.023 | quisinostat -0.095 | [3] -0.035

SET isoform 3 (UniProt Q01105)
inactive: dasatinib -0.101 | [6] -0.071

SHMT1 (UniProt J3KRZ5)
inactive: nilotinib -0.016 | [1] 0.074 | [2] 0.115 | tipifarnib 0.048

SHB (UniProt Q15464)
inactive: dasatinib 0.05 | [6] 0.004 | quisinostat 0.072 | [3] -0.026 | [5] -0.02 | [4] -0.01

SGK3 (UniProt Q96BR1)
inactive: dasatinib -0.291 | [6] 0.117 | [4] 0.112

SLC12A6 isoform 2 (UniProt Q9UHW9)
inactive: dasatinib -0.072 | [6] 0.206 | quisinostat -0.011 | [3] -0.055 | [5] -0.043 | [4] 0.039

SERPINF2 (UniProt P08697)
inactive: quisinostat 0.324 | [3] -0.052

SIRT3 (UniProt Q9NTG7)
inactive: dasatinib 0.045 | [6] 0.084 | quisinostat -0.076 | [3] 0.01 | [5] -0.033 | [4] -0.053

SERBP1 isoform 3 (UniProt Q8NC51)
inactive: dasatinib 0.006 | [6] 0.025 | quisinostat -0.051 | [3] 0.016 | [5] -0.056 | [4] -0.185

SH2D3A (UniProt Q9BRG2)
inactive: nilotinib -0.042 | [1] 0.192 | [2] 0.063 | tipifarnib 0.02

SKIL (UniProt P12757)
inactive: [4] -0.291

SH3KBP1 (UniProt Q96B97)
inactive: dasatinib 0.075 | [6] -0.128 | quisinostat -0.047 | [3] 0.06 | [5] -0.093 | [4] -0.074

SLC12A7 (UniProt Q9Y666)
inactive: [5] -0.162

SH3BP2 isoform 4 (UniProt P78314)
inactive: dasatinib -0.027 | [6] -0.107 | quisinostat -0.111 | [3] 0.019 | [5] 0.141 | [4] 0.048

SF3B2 (UniProt E9PJ04)
inactive: nilotinib -0.04 | [1] 0.103 | [2] 0.091 | tipifarnib 0.067 | [5] 0.085 | [4] -0.031

SLAIN2 (UniProt D6RIF6)
inactive: quisinostat 0.072 | [3] -0.043

SGSM3 isoform 2 (UniProt Q96HU1)
inactive: nilotinib -0.038 | [1] 0.113 | [2] -0.026 | quisinostat 0.045 | tipifarnib 0.015 | [3] 0.013 | [5] -0.056 | [4] 0.065

SLC22A18 (UniProt Q96BI1)
inactive: quisinostat -0.027 | [3] -0.032 | [5] 0.029 | [4] 0.007

SH2B3 (UniProt Q9UQQ2)
inactive: quisinostat 0.056 | [3] -0.127 | [4] 0.023

SIX4 (UniProt Q9UIU6)
inactive: nilotinib 0.015 | [1] 0.026 | [2] -0.016 | tipifarnib -0.003 | [5] 0.055 | [4] -0.03

SIK2 (UniProt Q9H0K1)
inactive: nilotinib -0.148 | [1] 0.233 | [2] 0.176 | tipifarnib -0.05

SF1 (UniProt H7C0N4)
inactive: quisinostat -0.06 | [3] -0.072 | [5] -0.078

Reprinted from the entries so far (7 entries):
SKIL (UniProt P12757)
inactive: [4] -0.291

SH3KBP1 (UniProt Q96B97)
inactive: dasatinib 0.075 | [6] -0.128 | quisinostat -0.047 | [3] 0.06 | [5] -0.093 | [4] -0.074

SLC12A7 (UniProt Q9Y666)
inactive: [5] -0.162

SH3BP2 isoform 4 (UniProt P78314)
inactive: dasatinib -0.027 | [6] -0.107 | quisinostat -0.111 | [3] 0.019 | [5] 0.141 | [4] 0.048

SF3B2 (UniProt E9PJ04)
inactive: nilotinib -0.04 | [1] 0.103 | [2] 0.091 | tipifarnib 0.067 | [5] 0.085 | [4] -0.031

SLAIN2 (UniProt D6RIF6)
inactive: quisinostat 0.072 | [3] -0.043

SGSM3 isoform 2 (UniProt Q96HU1)
inactive: nilotinib -0.038 | [1] 0.113 | [2] -0.026 | quisinostat 0.045 | tipifarnib 0.015 | [3] 0.013 | [5] -0.056 | [4] 0.065

(further entries)

SESTD1 (UniProt Q86VW0)
inactive: quisinostat -0.061 | [3] 0.186

SKOR2 (UniProt Q2VWA4)
inactive: dasatinib -0.026 | [6] -0.017 | quisinostat -0.226 | [3] 0.064 | [5] 0.059 | [4] -0.062
